Test [1] addresses T1, RUG3-YFP^N (RCC1/UVR8/GEF-Like 3 fused to the N-terminal half of YFP) (Arabidopsis thaliana) (UniProt Q9FJG9).
T1 sequence: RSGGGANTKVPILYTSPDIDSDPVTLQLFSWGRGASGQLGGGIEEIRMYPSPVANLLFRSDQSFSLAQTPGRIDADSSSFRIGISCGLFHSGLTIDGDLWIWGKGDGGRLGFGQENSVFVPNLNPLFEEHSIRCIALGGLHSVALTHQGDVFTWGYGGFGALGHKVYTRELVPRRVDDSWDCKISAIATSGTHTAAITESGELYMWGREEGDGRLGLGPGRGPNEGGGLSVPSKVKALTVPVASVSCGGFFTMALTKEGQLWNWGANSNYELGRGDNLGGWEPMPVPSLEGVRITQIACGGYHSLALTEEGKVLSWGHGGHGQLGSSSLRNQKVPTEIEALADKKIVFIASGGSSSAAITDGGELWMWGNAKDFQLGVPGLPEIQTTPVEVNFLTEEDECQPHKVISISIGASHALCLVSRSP
As to the kind of experiment: split reporter; BiFC; RUG3-YFP^N and ATM-N-YFP^C co-expressed in N. benthamiana leaves by Agrobacterium injection; YFP fluorescence in epidermal cells after 2 days, confocal microscope; MitoTracker staining.

The target of test [2] is T2, GST-RUG3 fusion protein (Arabidopsis thaliana) (UniProt Q9FJG9).
T2 sequence: T1 sequence
In words: pull-down; equal amounts of purified MBP-ATM-N added to tubes with GSH-Sepharose resin plus GST or GST-RUG3; detected with anti-MBP antibodies; both purified.

Results are given in words; binding and its absence hold for the method and conditions named. For some assays here: Binding seen in cells or lysates may run through a third protein. Some entries that bind do so weakly or less than the wild type. Tags and fused reporters may be left off the sequences shown.

B1: ATM-N-YFP^C (N-terminal region of ataxia telangiectasia mutated fused to the C-terminal half of YFP) (domain or fragment, UniProt Q9M3G7 1-300)
chain: MKLQNPDKKTLREGFSQESSVVALDSGVLAMSGLKCDGKFPVKDVLMEEGGDKVRKIQVSGGNISLVVDFSGARTSSNNFFESNASCVNENLVKGNGYREDETQEFLVGNLVWVMTKYKKWWPGEVVDFKADAKESFMVRSIGQSHLVSWFASSKLKPFKESFEQVLNQRNDNGFFDALQKAMSLLSNSLKLDMTCSCIADGNGIVSAQNITTRKNKPLILREFSVDRLEPKEFVTQLKNIAKCVLNAGVLESTVMQSQLSAFYTLFGHKQIPMAQLHENEGRKSFTAKMSDSKFIGSPS
On to B1, for which the binding entry in test [1] is reported as “binds”.

B2: MBP-ATM-N (N-terminus of ataxia telangiectasia mutated fused to MBP) (domain or fragment, UniProt Q9M3G7 1-300)
chain: B1 chain
On to B2, for which the binding entry in test [2] is “binds”.

These data come from publication PMC5338318.
